Measured values taken from article PMC11997338.
No constants are given. Whether binding was seen depends on the method and setting. In cells and extracts the contact can be indirect. Binding calls can cover weak binding; strength is not graded here. Sequences can lack the tags named with a protein.

Each substance was assayed against T1, hemagglutinin (HA)-tagged endoglin (ENG) (UniProt P17813) (assay: co-IP; HEK293T co-transfected with HA-tagged ENG and GFP-tagged DSP plasmids, 48 h; NP-40 lysis buffer (50 mM Tris–HCl pH 7.4, 150 mM NaCl, 1% NP-40); anti-HA or anti-GFP antibody overnight at 4 °C, protein A/G magnetic beads; isotype IgG control; Western blot).
T1 sequence: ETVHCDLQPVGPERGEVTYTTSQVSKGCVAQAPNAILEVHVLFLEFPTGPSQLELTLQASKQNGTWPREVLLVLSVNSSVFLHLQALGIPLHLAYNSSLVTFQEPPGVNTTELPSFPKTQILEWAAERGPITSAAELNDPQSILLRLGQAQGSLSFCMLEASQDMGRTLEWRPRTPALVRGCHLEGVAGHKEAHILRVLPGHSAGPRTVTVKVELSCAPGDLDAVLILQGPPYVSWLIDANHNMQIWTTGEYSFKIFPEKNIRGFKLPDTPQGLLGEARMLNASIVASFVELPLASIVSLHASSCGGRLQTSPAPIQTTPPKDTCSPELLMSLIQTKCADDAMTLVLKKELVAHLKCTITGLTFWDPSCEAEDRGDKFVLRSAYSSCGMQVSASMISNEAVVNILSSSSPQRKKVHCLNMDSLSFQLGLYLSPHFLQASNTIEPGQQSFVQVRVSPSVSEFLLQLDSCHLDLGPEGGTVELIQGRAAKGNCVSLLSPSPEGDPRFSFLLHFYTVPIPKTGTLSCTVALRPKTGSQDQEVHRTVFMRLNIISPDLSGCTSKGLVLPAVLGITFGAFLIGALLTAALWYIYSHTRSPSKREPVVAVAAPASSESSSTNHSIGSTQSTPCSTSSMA
With “GFP-tagged DSP_(aa34–50) (domain or fragment)” the binding was “binds”. For GFP-tagged DSP_(Δ34–50), the binding was “no binding”. “GFP-tagged full-length dentin sialoprotein (DSP)” was tested, and the binding was “binds”. With “GFP-tagged truncated DSP, aa1–100 (domain or fragment)” the binding was “binds”.
